Assay results taken from publication doi:10.1101/2022.10.17.512631 (bioRxiv, 2022).
Results are given in words; binding and its absence hold for the method and conditions named. For some of these results: In cells and extracts the contact can be indirect. Some binding calls cover weakened binding; strength is not graded here.

Amino acid sequences for entries named in this document (tags omitted). A change or cut given only in a name is not applied to a line headed by its entry.
UniProt Q86U44: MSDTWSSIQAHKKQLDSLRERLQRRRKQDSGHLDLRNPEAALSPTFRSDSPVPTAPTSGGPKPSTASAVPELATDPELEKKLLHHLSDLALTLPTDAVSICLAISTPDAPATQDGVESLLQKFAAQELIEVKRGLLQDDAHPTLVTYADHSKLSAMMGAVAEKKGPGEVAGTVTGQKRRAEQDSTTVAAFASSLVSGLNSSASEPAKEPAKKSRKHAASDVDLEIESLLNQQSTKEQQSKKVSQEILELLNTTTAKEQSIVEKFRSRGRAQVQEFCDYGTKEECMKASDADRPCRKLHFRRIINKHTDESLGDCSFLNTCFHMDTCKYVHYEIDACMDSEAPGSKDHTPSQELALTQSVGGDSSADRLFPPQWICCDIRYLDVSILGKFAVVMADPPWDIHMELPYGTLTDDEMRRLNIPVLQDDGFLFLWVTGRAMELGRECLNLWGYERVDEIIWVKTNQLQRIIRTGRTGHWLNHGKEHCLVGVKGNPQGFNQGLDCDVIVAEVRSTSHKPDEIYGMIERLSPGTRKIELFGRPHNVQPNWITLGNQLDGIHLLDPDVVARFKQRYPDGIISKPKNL
UniProt O94992: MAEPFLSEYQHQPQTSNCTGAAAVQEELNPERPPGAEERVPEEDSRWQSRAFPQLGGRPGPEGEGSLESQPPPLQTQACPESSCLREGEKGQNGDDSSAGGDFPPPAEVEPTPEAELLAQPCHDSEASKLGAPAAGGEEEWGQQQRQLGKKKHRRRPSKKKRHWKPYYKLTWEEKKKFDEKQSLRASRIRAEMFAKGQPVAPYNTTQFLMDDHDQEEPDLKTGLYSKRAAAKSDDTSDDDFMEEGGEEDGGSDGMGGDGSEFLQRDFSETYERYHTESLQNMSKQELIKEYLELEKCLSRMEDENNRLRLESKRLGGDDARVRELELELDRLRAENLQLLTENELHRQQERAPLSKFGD

Columns and labels:
[1] = target: phosphomimetic S43E METTL3 (human) (UniProt Q86U44); test: SPR
[2] = target: Flag-HEXIM1 (UniProt O94992); test: co-IP
[3] = target: GST-METTL3 (non-phosphorylated) (human) (UniProt Q86U44); test: pull-down
[4] = target: Flag-METTL3 (human) (UniProt Q86U44); test: co-IP

## HEXIM1 (from UniProt O94992 1-359)
[1]
  binding: no binding

## METTL3 (in cells that express Flag-HEXIM1) (from UniProt Q86U44 1-580) (enzyme)
[2]
  binding: binds

## endogenous HEXIM1 (from UniProt O94992 1-359)
[3]
  binding: binds
[4]
  binding: binds
